These are yes or no findings as the source states them, for the method shown. Binding seen in cells or lysates may run through a third protein. Some binding calls cover weakened binding; strength is not graded here.

Protein sequences, listed by entry. Tags and fused reporters are not part of them.
UniProt P07356: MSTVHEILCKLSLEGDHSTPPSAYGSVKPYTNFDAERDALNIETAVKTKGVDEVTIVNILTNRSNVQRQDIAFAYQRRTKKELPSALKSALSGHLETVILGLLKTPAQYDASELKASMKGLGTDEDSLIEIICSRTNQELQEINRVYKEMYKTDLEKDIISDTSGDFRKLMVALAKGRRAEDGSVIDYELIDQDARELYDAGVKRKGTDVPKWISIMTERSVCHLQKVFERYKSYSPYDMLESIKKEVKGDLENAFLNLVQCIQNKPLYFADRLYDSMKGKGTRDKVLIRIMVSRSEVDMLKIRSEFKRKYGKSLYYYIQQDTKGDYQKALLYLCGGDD

The results in this text go back to article PMC10929186.

The target in the test is Anxa2 (mouse (endogenous in primary acinar cells and 266-6 cells)) (UniProt P07356). Description: co-IP; endogenous proteins in lysate of isolated primary acinar cells treated with 100 nM caerulein or PBS for 6 hours; anti-Hspb1 or anti-Anxa2 antibody, Protein A/G agarose beads, Western blot. Background: In western blotting, separated proteins are transferred to a membrane and probed.

B1: Prdx1 (protein, UniProt P35700 1-199)
chain: MSSGNAKIGYPAPNFKATAVMPDGQFKDISLSEYKGKYVVFFFYPLDFTFVCPTEIIAFSDRADEFKKLNCQVIGASVDSHFCHLAWINTPKKQGGLGPMNIPLISDPKRTIAQDYGVLKADEGISFRGLFIIDDKGILRQITINDLPVGRSVDEIIRLVQAFQFTDKHGEVCPAGWKPGSDTIKPDVNKSKEYFSKQK
As to B1, the binding result is on record as “binds”.
